The values that follow come from article PMC12006517.

By UniProt entry, the sequences of proteins in these tests, tags left out.
UniProt Q93008: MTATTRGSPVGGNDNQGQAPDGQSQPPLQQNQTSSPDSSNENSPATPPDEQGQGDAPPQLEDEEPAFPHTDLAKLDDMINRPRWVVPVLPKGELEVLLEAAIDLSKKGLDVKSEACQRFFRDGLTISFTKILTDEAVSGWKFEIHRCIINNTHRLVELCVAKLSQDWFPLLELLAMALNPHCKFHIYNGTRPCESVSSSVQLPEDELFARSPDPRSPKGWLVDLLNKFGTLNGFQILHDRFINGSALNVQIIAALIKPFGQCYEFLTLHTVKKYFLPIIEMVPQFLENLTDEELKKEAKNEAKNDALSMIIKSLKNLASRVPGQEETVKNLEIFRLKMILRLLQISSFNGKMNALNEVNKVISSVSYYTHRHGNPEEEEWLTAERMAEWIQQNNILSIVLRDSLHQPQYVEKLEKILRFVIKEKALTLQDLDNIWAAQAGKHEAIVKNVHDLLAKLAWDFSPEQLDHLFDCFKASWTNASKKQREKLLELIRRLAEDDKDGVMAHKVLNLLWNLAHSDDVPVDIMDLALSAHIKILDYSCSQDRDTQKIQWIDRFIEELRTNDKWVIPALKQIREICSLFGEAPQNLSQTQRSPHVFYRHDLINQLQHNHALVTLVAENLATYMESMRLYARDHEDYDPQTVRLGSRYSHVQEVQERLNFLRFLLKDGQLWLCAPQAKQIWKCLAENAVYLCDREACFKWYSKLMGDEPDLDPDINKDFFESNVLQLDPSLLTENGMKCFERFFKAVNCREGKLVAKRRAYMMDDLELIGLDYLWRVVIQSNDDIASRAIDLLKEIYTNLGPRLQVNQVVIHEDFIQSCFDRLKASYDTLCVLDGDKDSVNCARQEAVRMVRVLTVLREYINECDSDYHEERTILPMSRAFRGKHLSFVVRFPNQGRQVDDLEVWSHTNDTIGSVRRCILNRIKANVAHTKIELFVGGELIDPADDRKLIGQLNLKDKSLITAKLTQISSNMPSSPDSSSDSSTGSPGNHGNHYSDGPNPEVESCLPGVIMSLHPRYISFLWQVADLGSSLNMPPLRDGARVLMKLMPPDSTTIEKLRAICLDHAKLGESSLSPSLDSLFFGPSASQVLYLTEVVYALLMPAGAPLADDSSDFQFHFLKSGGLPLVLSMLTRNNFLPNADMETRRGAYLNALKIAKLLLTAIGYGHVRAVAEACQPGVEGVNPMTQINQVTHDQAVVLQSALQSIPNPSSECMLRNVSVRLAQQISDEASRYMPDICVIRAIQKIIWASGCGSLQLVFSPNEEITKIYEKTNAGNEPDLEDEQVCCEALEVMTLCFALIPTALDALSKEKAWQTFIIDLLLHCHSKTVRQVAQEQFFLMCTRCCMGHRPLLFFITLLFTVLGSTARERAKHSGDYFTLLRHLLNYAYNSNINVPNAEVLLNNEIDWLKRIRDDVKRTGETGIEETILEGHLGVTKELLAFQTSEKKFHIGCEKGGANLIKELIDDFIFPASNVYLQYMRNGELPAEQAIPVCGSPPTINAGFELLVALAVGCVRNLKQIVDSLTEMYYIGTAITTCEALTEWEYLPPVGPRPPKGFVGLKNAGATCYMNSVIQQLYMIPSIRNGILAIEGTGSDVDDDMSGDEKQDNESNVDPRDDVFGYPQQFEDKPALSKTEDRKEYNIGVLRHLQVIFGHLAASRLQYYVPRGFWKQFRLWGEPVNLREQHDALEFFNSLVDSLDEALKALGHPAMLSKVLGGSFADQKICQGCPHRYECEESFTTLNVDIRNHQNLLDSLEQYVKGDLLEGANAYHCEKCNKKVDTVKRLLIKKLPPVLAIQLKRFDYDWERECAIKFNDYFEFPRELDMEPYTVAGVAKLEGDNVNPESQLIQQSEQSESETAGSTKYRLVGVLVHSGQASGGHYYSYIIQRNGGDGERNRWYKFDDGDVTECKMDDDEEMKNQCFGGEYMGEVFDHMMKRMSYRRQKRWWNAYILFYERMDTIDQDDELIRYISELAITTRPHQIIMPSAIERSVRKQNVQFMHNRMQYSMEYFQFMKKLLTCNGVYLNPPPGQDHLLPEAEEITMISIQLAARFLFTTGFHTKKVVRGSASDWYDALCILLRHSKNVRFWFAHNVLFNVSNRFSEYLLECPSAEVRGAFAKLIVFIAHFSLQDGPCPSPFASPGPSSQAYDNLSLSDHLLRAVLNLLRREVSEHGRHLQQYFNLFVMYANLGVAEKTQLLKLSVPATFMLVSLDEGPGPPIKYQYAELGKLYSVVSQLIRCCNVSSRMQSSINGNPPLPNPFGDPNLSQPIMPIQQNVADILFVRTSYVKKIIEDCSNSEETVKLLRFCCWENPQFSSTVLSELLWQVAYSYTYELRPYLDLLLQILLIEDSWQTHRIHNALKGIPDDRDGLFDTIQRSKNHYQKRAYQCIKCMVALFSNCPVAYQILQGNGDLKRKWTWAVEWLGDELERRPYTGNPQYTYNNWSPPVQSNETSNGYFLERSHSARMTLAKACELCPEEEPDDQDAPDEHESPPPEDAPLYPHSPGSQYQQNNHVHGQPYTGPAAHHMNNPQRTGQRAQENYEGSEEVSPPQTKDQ
UniProt Q99814: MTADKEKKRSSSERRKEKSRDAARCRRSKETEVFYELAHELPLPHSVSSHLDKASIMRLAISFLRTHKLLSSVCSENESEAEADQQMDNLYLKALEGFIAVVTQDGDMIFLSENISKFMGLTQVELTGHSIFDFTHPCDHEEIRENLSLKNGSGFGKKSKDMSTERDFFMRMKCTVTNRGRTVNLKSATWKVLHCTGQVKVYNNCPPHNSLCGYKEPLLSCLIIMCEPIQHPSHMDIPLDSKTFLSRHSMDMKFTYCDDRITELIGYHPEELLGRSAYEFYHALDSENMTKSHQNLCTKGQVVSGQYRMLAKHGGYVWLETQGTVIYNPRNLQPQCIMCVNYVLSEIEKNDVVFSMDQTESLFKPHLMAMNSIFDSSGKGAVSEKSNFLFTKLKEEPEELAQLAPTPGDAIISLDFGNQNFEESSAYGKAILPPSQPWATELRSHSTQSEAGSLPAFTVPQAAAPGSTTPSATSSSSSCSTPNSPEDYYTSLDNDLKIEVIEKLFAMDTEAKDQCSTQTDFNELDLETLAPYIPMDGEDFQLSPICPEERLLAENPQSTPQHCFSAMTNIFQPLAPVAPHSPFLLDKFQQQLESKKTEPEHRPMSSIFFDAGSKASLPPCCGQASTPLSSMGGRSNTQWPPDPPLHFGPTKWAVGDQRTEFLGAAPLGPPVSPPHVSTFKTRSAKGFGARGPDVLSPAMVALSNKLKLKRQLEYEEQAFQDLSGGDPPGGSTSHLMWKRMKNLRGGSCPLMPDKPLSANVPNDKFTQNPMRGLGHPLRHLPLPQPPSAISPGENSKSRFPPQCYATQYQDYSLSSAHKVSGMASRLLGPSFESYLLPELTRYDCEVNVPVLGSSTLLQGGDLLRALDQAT

Assay [1] concerns the target Flag-tagged full length USP9X wild-type (UniProt Q93008). The assay can be described thus: affinity purification with mass spectrometry; Flag-tagged USP9X or HIF-2α transfected into HEK293T for 48 h; lysis buffer 50 mM Tris-HCl pH 7.4, 150 mM NaCl, 5 mM EDTA, 0.5% NP-40; Flag-M2 beads, eluted with FLAG peptide; in-gel digestion, Q Exactive Plus.
For a further assay, the target named is Flag-tagged HIF-2α (UniProt Q99814). The assay is described as above.

These are yes or no findings as the source states them, for the method shown. Binding seen in cells or lysates may run through a third protein. Here binding means that the protein was enriched with, or labelled near, the bait; the list need not be complete.

For “HIF-2α (endogenous, HEK293T) (from UniProt Q99814 1-870)”, in assay [1], the binding entry is listed as “binds”.

Take “USP9X (endogenous, HEK293T) (from UniProt Q93008 1-2554) (enzyme)”: the binding result in the assay with Flag-tagged HIF-2α is recorded as “binds”.

B1: CEP131 (endogenous, HEK293T) (protein, UniProt Q9UPN4 1-1083)
chain: MKGTRAIGSVPERSPAGVDLSLTGLPPPVSRRPGSAATTKPIVRSVSVVTGSEQKRKVLEATGPGGSQAINNLRRSNSTTQVSQPRSGSPRPTEPTDFLMLFEGSPSGKKRPASLSTAPSEKGATWNVLDDQPRGFTLPSNARSSSALDSPAGPRRKECTVALAPNFTANNRSNKGAVGNCVTTMVHNRYTPSERAPPLKSSNQTAPSLNNIIKAATCEGSESSGFGKLPKNVSSATHSARNNTGGSTGLPRRKEVTEEEAERFIHQVNQATVTIQRWYRHQVQRRGAGAARLEHLLQAKREEQRQRSGEGTLLDLHQQKEAARRKAREEKARQARRAAIQELQQKRALRAQKASTAERGPPENPRETRVPGMRQPAQELSPTPGGTAHQALKANNTGGGLPAAGPGDRCLPTSDSSPEPQQPPEDRTQDVLAQDAAGDNLEMMAPSRGSAKSRGPLEELLHTLQLLEKEPDVLPRPRTHHRGRYAWASEVTTEDDASSLTADNLEKFGKLSAFPEPPEDGTLLSEAKLQSIMSFLDEMEKSGQDQLDSQQEGWVPEAGPGPLELGSEVSTSVMRLKLEVEEKKQAMLLLQRALAQQRDLTARRVKETEKALSRQLQRQREHYEATIQRHLAFIDQLIEDKKVLSEKCEAVVAELKQEDQRCTERVAQAQAQHELEIKKLKELMSATEKARREKWISEKTKKIKEVTVRGLEPEIQKLIARHKQEVRRLKSLHEAELLQSDERASQRCLRQAEELREQLEREKEALGQQERERARQRFQQHLEQEQWALQQQRQRLYSEVAEERERLGQQAARQRAELEELRQQLEESSSALTRALRAEFEKGREEQERRHQMELNTLKQQLELERQAWEAGRTRKEEAWLLNREQELREEIRKGRDKEIELVIHRLEADMALAKEESEKAAESRIKRLRDKYEAELSELEQSERKLQERCSELKGQLGEAEGENLRLQGLVRQKERALEDAQAVNEQLSSERSNLAQVIRQEFEDRLAASEEETRQAKAELATLQARQQLELEEVHRRVKTALARKEEAVSSLRTQHEAAVKRADHLEELLEQHRRPTPSTK
For the molecule B1, the binding entry in assay [1] is “binds”.
